Reference: publication PMC11605454

Assays:
[1] = biological target: T1, CPSF6, mouse (mouse (endogenous in P0 cortex)) (UniProt Q6NVF9); assay: co-IP; reciprocal Co-IP-Western to validate newly identified PHF21A partners; source of the extract and the antibodies used to precipitate are not given
T1 sequence: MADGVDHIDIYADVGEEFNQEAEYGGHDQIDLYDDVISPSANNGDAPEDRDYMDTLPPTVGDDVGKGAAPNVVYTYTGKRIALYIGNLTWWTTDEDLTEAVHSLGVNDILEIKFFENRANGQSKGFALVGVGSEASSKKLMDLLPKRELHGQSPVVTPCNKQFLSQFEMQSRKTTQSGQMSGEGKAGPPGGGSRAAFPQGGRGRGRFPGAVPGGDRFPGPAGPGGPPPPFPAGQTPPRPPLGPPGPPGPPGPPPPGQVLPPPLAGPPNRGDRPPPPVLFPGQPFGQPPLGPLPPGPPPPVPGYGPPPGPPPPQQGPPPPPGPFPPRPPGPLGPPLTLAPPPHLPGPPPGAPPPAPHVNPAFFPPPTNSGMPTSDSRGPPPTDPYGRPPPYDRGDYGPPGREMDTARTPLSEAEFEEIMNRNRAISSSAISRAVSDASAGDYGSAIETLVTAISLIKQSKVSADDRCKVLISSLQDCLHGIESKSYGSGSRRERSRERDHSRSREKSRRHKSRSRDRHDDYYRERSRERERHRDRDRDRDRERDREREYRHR

[2] = biological target: PHF21A neuronal isoform (PHF21A-n), mouse (mouse (endogenous in cortical neurons and P0 cortex)); assay: co-IP; anti-PHF21A antibody crosslinked to Protein A/G beads, control rabbit IgG; nuclear extracts (0.6 M KCl extraction) of LUHMES cells (day 0, day 3), 293T cells, MEFs, cortical neurons (DIV7) or P0 mouse cortices; 3 h at 4 °C; Western blot

| Molecule | binding [1] | binding [2] |
| --- | --- | --- |
| PHF21A neuronal isoform (PHF21A-n), mouse | binds | – |
| HMG20A (iBRAF), mouse (protein, UniProt Q9DC33 1-346) MESLMASSTLPPLFADEDGSKESNDLATSGLTHPEGPYGSAATSTTNPEFVEDLSQGQLLQSEASNAVEGNEQRPEDEQRSKRGGWSKGRKRKKPLRDSNAPKSPLTGYVRFMNERREQLRAKRPEVPFPEITRMLGNEWSKLPPEEKQRYLDEADRDKERYMKELEQYQKTEAYKVFSRKTQDRQKGKSHRQDAARQATHDHEKETEVKERSVFDIPIFTEEFLNHSKAREAELRQLRKSNMEFEERNAALQKHVESMRTAVEKLEVDVIQERSRNTVLQQHLETLRQMLTSSFASMPLPGSGEIPTVDTIDSYMNRLHSIILANPQDNENFIATVREVVNRLDR | – | binds |
| HMG20B (BRAF35), mouse (protein, UniProt Q9Z104 1-317) MSHGPRQPGAATAPAGGKTPGQHGAFVVAVKQERSEGSRAGEKGPQEEEPVKKRGWPKGKKRKKILPNGPKAPVTGYVRFLNERREQIRTRHPDLPFPEITKMLGAEWSKLQPAEKQRYLDEAEKEKQQYLKELWAYQQSEAYKVCTEKIQENKIKKEDSSSGLMNTLLNGHKGVDCDGFSTFDVPIFTEEFLDQNKAREAELRRLRKMNVAFEEQNAVLQRHTQSMSSARERLEQELALEERRTLALQQQLQAVRQALTASFASLPVPGTGETPTLGTLDFYMARLHGAIERDPAQHERLIARVKEILARVASEHL | – | binds |

No constants are given. Whether binding was seen depends on the method and setting. Binding seen in cells or lysates may run through a third protein. Binding calls can cover weak binding; strength is not graded here.
